The values that follow come from publication PMC4865918.

The target of assay [1] is GST-CBS (Bateman module of human CNNM3, amino acids 302-452) (human) (UniProt Q8NE01). Put plainly: condition: only with thienopyridone (various concentrations); pull-down; in vitro; as the control, but His-PRL-2 incubated 20 min at 4 °C with various concentrations of thienopyridone before it was added to GST-CBS-bound beads; both purified.
The target of another assay is T1, GST-PRL-2 (human) (UniProt Q12974).
T1 sequence: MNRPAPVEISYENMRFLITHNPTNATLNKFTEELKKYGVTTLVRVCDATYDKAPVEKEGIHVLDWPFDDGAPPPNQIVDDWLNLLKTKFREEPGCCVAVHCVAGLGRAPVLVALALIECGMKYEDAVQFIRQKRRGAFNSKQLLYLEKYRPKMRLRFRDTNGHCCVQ
Put plainly: pull-down; HeLa cells transiently co-transfected with GST-PRL-2 and full-length CNNM3 or mutants; GST pulldown on cell extracts, Western blot with v5 or GST antibodies.

Results are given in words; binding and its absence hold for the method and conditions named. For some assays here: In cells and extracts the contact can be indirect. Some results given as binding are weak or reduced against the parent protein; the word gives no strength. Tags and fused reporters may be left off the sequences shown.

B1: His-PRL-2 (enzyme, UniProt Q12974 1-167)
chain: MNRPAPVEISYENMRFLITHNPTNATLNKFTEELKKYGVTTLVRVCDATYDKAPVEKEGIHVLDWPFDDGAPPPNQIVDDWLNLLKTKFREEPGCCVAVHCVAGLGRAPVLVALALIECGMKYEDAVQFIRQKRRGAFNSKQLLYLEKYRPKMRLRFRDTNGHCCVQ
B1: the binding result in assay [1] is recorded as “no binding”.

B2: full-length CNNM3 (CNNM3 WT-v5) (protein, UniProt Q8NE01 1-707)
chain: MAAAVAAAGRLGWLFAALCLGNAAGEAAPGPRVLGFCLEEDGAAGAGWVRGGAARDTPDATFLLRLFGPGFANSSWSWVAPEGAGCREEAASPAGEWRALLRLRLRAEAVRPHSALLAVRVEPGGGAAEEAAPPWALGLGAAGLLALAALARGLQLSALALAPAEVQVLRESGSEAERAAARRLEPARRWAGCALGALLLLASLAQAALAVLLYRAAGQRAVPAVLGSAGLVFLVGEVVPAAVSGRWTLALAPRALGLSRLAVLLTLPVALPVGQLLELAARPGRLRERVLELARGGGDPYSDLSKGVLRCRTVEDVLTPLEDCFMLDASTVLDFGVLASIMQSGHTRIPVYEEERSNIVDMLYLKDLAFVDPEDCTPLSTITRFYNHPLHFVFNDTKLDAVLEEFKRGKSHLAIVQKVNNEGEGDPFYEVLGLVTLEDVIEEIIRSEILDESEDYRDTVVKRKPASLMAPLKRKEEFSLFKVSDDEYKVTISPQLLLATQRFLSREVDVFSPLRISEKVLLHLLKHPSVNQEVRFDESNRLATHHYLYQRSQPVDYFILILQGRVEVEIGKEGLKFENGAFTYYGVSALTVPSSVHQSPVSSLQPIRHDLQPDPGDGTHSSAYCPDYTVRALSDLQLIKVTRLQYLNALLATRAQNLPQSPENTDLQVIPGSQTRLLGEKTTTAAGSSHSRPGVPVEGSPGRNPGV
B2: in the assay with GST-PRL-2 (human), the binding entry is “binds”.
